About 780 (0.22%) of roughly 360,000 compounds were called active. The inconclusive results got no clear call from the source; some entries with a clear call stand among them for comparison. Rule as the data show it: active = inhibition above about 35% (passing the limit was not always enough); inconclusive = no clear call, values can overlap the other calls.
system: Botulinum neurotoxin type F light chain protease (Clostridium botulinum); test: BoNT/F light chain protease inhibitors, primary screen, biochemical, flow cytometry, MLPCN library (AID 588497); conditions: Multiplex microsphere protease cleavage assay, at 10 µM, stronger effect = higher value; also: plate controls were buffer without enzyme for full effect and enzyme alone for no effect

Row | Structure (SMILES) | inhibition
1 | CNc1cccc(-c2ccc(C(C)=O)s2)n1 | inactive: 2.5%
2 | N/C(=N\OC(=O)c1ccc([N+](=O)[O-])cc1Cl)c1ccccn1 | inconclusive: -26.2%
3 | COc1cc(OC)cc(C(=O)Nc2ccc(C(=O)Nc3ccccc3OC)cc2)c1 | inactive: 3.8%
4 | O=C(CSC(=S)N1CCCC1)NCC(=O)Nc1ccccc1Br | inconclusive: 1.1%
5 | Cc1cc(C)cc(NC(=O)Nc2ccc(S(=O)(=O)Nc3cc(C)on3)cc2)c1 | inconclusive: 30%
6 | O=C(Nc1ccc(Cl)c(S(=O)(=O)N2CCCCC2)c1)c1cccnc1 | inconclusive: 4%
7 | Cc1nc2sc(C(c3ccccc3)N3CC(C)OC(C)C3)c(O)n2n1 (centres undefined) | inconclusive: -35.9%
8 | CC12C(=O)N(Cc3ccco3)C(=O)C1C1c3ccccc3C2c2ccccc21 (centres undefined) | inconclusive: -16.2%
9 | COCCN1C(=O)c2ccc(C(=O)O)cc2C1=O | inconclusive: -7.5%
10 | Cc1ccccc1S(=O)(=O)/N=C(/Nc1nc2ccccc2s1)c1ccccc1 | inactive: -4.1%
11 | CC1CCCCN1Cc1c[nH]c2ccccc12 (centres undefined) | inconclusive: -48%
12 | CC1CCCN(C2(O)C(=O)Nc3c(C(F)(F)F)cccc32)C1 (centres undefined) | inconclusive: -14.3%
13 | COc1cc(C(=S)N2CCOCC2)cc(OC)c1OC(=O)c1ccc([N+](=O)[O-])cc1[N+](=O)[O-] | inconclusive: -37.5%
14 | Cc1ccc[n+](CC(=O)Nc2cccc(Cl)c2)c1 | inconclusive: 21%
15 | Cc1ccc(C)c(Nc2nc(-c3ccncc3)nc3ccccc23)c1 | active: 41.6%
16 | COc1cccc(OCCNC(=O)c2cc(OC)c(OC)c(OC)c2)c1 | active: 40%
17 | CCN1CCN(C/C(C)=C/c2ccccc2)CC1 | inconclusive: -20.8%
18 | COc1ccc(C=C2C(=O)N(C)C(=O)N(C)C2=O)cc1COc1ccc(NC(C)=O)cc1 | inconclusive: 21.1%
19 | CCc1ccccc1N(CC(=O)NC(C)C)C(=O)CCC(=O)Nc1nccs1 | inconclusive: -22.7%
20 | CN(C)CCCC1Sc2ccccc2Sc2ccccc21 (centres undefined) | inconclusive: -56.9%

Row | Structure (SMILES) | inhibition
21 | N=C1SC(c2ccccc2)C(=O)N1c1ncc(Cc2ccccc2Cl)s1 (centres undefined) | inactive: -12.4%
22 | O=C(C1CC=CCC1)N1CCN(C(=O)C2CC=CCC2)CC1 (centres undefined) | inconclusive: 11.4%
23 | Cc1ccc(C)c(NC(=O)CCN2CC(C)CC(C)C2)c1 (centres undefined) | inconclusive: -30.2%
24 | Cc1noc(C)c1-c1ccc(C(=O)NC2CCCCC2)c2occc12 | inactive: 6.3%
25 | CC(C)NC(=O)c1ccc(N2CCOCC2)nc1 | inconclusive: -2%
26 | CCOc1ccc(N2C(=O)CC(NCC#N)C2=O)cc1 (centres undefined) | inconclusive: 3.9%
27 | CC(C)NC(=O)NNC(=O)c1cc(COc2cc(Cl)cc(Cl)c2)on1 | inconclusive: 78.7%
28 | COc1ccc(CCNC2=CC(=O)CC(C)(C)C2)cc1 | inconclusive: 15.3%
29 | CCOc1ccc(-c2c(C(=O)N/N=C/c3ccco3)nnn2-c2nonc2N)cc1 | inactive: -0.6%
30 | Cc1ccc(C)c(OCC(=O)NCC(c2ccco2)N2CCCCC2)c1 (centres undefined) | inactive: 6%
31 | C=CCOc1ccc2ccccc2c1CNn1c(C)n[nH]c1=S | inconclusive: -29.8%
32 | CCOC(=O)C1CCCN(C(=O)CN2C(=O)c3ccccc3C2=O)C1 (centres undefined) | inactive: -0.6%
33 | CCOC(=O)/C(C#N)=C/C=C1\C=Cc2ccccc2N1CC | active: 178%
34 | CCc1ccc(-n2nc3cc(C)c(N)cc3n2)cc1 | inconclusive: -10.5%
35 | CCOc1ccccc1/C=C\c1nc(O)c([N+](=O)[O-])c(=O)[nH]1 | inactive: -28.1%
36 | OCc1nc2ccccc2n1CCCc1ccccc1 | inactive: -2.8%
37 | Cc1ccc(-c2cc(C(=O)N/N=C/c3cccnc3)c3ccccc3n2)cc1C | inconclusive: -4%
38 | CCOc1cc(C(=O)NCc2ccco2)cc(OCC)c1OCC | inconclusive: -2.7%
39 | CCNC(=O)CN(c1ccc(OC)c(OC)c1)S(=O)(=O)c1ccccc1 | inconclusive: -24.5%
40 | O=C(CSc1nc(O)cc(=O)n1-c1ccccc1)NCc1ccccc1 | inactive: -1.3%

Row | Structure (SMILES) | inhibition
41 | CCOc1ccc(C(=O)COC(=O)c2cc(=O)[nH]c3ccccc23)cc1 | inconclusive: 14.1%
42 | Cc1ccnc(NC(=O)c2ccccc2NC(=O)c2ccc(Cl)cc2Cl)c1 | inconclusive: 12.1%
43 | CCCCCCn1cc(C(=O)O)c(=O)c2cc(F)c(N3CCN(C)CC3)cc21 | inconclusive: 17%
44 | CCN(CCCNC(=O)CN(C)S(=O)(=O)c1cccc2nsnc12)c1cccc(C)c1 | inactive: 11.3%
45 | COc1ccccc1C(=O)NC(=O)CSc1nc2nc(C)cc(C)n2n1 | inconclusive: -32.4%
46 | COc1ccc(N=C2SCC(c3ccccc3)=NN2C)cc1 | inconclusive: -122%
47 | CCN(CC(=O)Nc1c(F)cccc1F)C(=O)C1CCN(S(=O)(=O)c2ccc(C)cc2C)CC1 | inconclusive: -341%
48 | CCOC(=O)C1CCN(C(=O)c2ccccc2CCc2ccccc2)CC1 | inconclusive: 11.1%
49 | Cc1[nH]c2ccccc2c1-c1csc(N)n1 | inconclusive: -45.4%
50 | COc1ccc(S(=O)Cc2ccc(C(=O)NCc3cccc(OC)c3)o2)cc1 (centres undefined) | inactive: -3.5%
51 | COc1ccc(CCNS(=O)(=O)c2cccc(C(=O)O)c2)cc1OC | inconclusive: 8.8%
52 | CC(=O)NC(C)(c1ccccc1)c1nc(-c2ccc(F)c(Cl)c2)cs1 (centres undefined) | inactive: -0.2%
53 | O=C(O)/C=C/c1ccc(S(=O)(=O)Nc2ccc3[nH]c(=O)[nH]c3c2)cc1 | inactive: 3.4%
54 | c1ccc(-c2ccc(-c3ccccn3)s2)nc1 | inactive: -3.6%
55 | C/C(=N\Nc1ccc([N+](=O)[O-])cc1[N+](=O)[O-])C(C)C(C)C (centres undefined) | inactive: -12.6%
56 | COc1ccc(C(=O)c2c(NC(C)=O)sc3c2CCN(C(=O)OC(C)(C)C)C3)cc1 | inconclusive: -38%
57 | CCCOc1ccc(C(=O)NNC(=S)NC(=O)c2ccco2)cc1 | inconclusive: -37.2%
58 | CCC(=O)Nc1c(-c2ccccc2)c(=O)c2ccccc2n1C | inconclusive: 26.3%
59 | Cc1cc(C)n(-c2nc3ccccc3c(=O)n2OCC(C)C)n1 | inactive: 8.6%

Shown tab-delimited: part of the list above
Row	Structure (SMILES)	inhibition
48	CCOC(=O)C1CCN(C(=O)c2ccccc2CCc2ccccc2)CC1	inconclusive: 11.1%
56	COc1ccc(C(=O)c2c(NC(C)=O)sc3c2CCN(C(=O)OC(C)(C)C)C3)cc1	inconclusive: -38%
58	CCC(=O)Nc1c(-c2ccccc2)c(=O)c2ccccc2n1C	inconclusive: 26.3%

Reference: PubChem BioAssay AID588497 (NMMLSC, 2011)
